The campaign covered roughly 300,000 compounds. About 5,400 (1.8%) were called active. The inconclusive results got no clear call from the source; some entries with a clear call stand among them for comparison. Calls come from the whole dose curve; tested in HEK293 cells. Where the call is inconclusive, the potency comes from a doubtful curve fit.
Assay: qHTS for inhibitors of binding or entry into cells for Marburg Virus
Conditions: Marburg virus pseudotyped entry inhibition, cell reporter; activity change, negative = inhibition: at 37.8 µM (top of the series) unless noted
% is set by controls: 0 for no effect and ±100 for the full control effect; potency is the fitted concentration of half-maximal effect.

Row | SMILES | Potency | activity change, negative = inhibition
1 | COc1nc(N)c(S(=O)(=O)c2ccccc2C)cc1C#N | inconclusive: 29.1 µM [activator, single point] | –
2 | COc1ccc(OC)c(NC(=O)COC(=O)CCS(=O)(=O)c2ccc(Cl)cc2)c1 | inconclusive: 3.55 µM [inhibitor, single point] | –
3 | Cc1cccc(NC(=O)C2CCCN(S(=O)(=O)c3c(C)n[nH]c3C)C2)c1 (stereo not given) | – | inactive: 15% [at 46.1 µM]
4 | Cc1ccc(S(=O)(=O)N2CCOCC2)cc1C(=O)OCC(=O)N(Cc1ccccc1)C(C)C | inconclusive: 0.891 µM [inhibitor, full curve, poor fit] | –
5 | CCOC(=O)N1CCN(C(=O)COC(=O)CNC(=O)c2ccc(OCC)c(OCC)c2)CC1 | – | inactive: 10.9% [at 46.1 µM]
6 | O=C(N/N=C/c1ccc2c(c1)OCO2)c1cccc2ccccc12 | active: 3.16 µM | –
7 | CCOC(=O)c1ccc(NC(=O)CN(c2ccc(C)cc2)S(=O)(=O)c2c(C)n[nH]c2C)cc1 | – | inactive: 5.61%
8 | O=C(O)COc1ccccc1/C=N/NC(=O)/C(=C\c1ccc2c(c1)OCO2)NC(=O)c1ccccc1 | inconclusive: 14.1 µM [inhibitor, single point] | –
9 | Cc1cccc(N(CC(=O)NCc2ccco2)C(=O)CCC(=O)Nc2ccccn2)c1 | inconclusive: 1.26 µM [inhibitor, single point] | –
10 | CCOc1cc(C(=O)NCCCn2ccnc2)cc(OCC)c1OCC | inconclusive: 0.631 µM [inhibitor, single point] | –
11 | O=C(CCC1COc2ccccc2O1)NCC1COc2ccccc2O1 (stereo not given) | – | inactive: 10.3%
12 | COC(=O)c1c(-c2cc(C)ccc2C)csc1NC(=O)C1CC=CCC1C(=O)O (stereo not given) | – | inactive: -0.276% [at 46.1 µM]
13 | CCOc1ccc(NC(=O)C(c2ccccn2)N(C(=O)CCl)c2ccc(OC)cc2)cc1 (stereo not given) | inconclusive: 35.5 µM [inhibitor, single point] | –
14 | CC(OC(=O)c1ccc2c(c1)OCO2)C(=O)NC1CCCCC1C (stereo not given) | inconclusive: 1 µM [inhibitor, full curve, poor fit] | –
15 | CCn1c2ccccc2c2cc(NC(=O)c3cc(C)on3)ccc21 | inconclusive: 7.94 µM [inhibitor, partial curve, poor fit] | –
16 | Cc1ccc(Nc2c([N+](=O)[O-])ccc3nonc23)c(C)c1 | – | inactive: 4.22% [at 46.1 µM]
17 | C=CCOc1c(Br)cc(CNc2ccc3[nH]c(=O)[nH]c3c2)cc1OCC | inconclusive: 35.5 µM [inhibitor, partial curve, poor fit] | –
18 | Cn1nccc1C(=O)Nc1ccn(C23CC4CC(CC(C4)C2)C3)n1 | inconclusive: 28.2 µM [inhibitor, single point] | –
19 | NNC(=O)CSCc1ccc(Cl)cc1Cl | – | inactive: 3.07% [at 46.1 µM]
20 | COc1ccc(Cn2cc(C(=O)c3ccc(F)cc3)c(=O)c3cc4c(cc32)OCCO4)cc1 | inconclusive: 14.1 µM [inhibitor, partial curve, poor fit] | –
21 | O=C(Nc1ccc(Cl)c(Cl)c1)c1ccc(Cn2cc(Cl)cn2)cc1 | – | inactive: 1.3%
22 | CCC1(C)Cc2c(sc3nc(SC)nc(NCCN(C)C)c23)CO1 (stereo not given) | inconclusive: 29.1 µM [inhibitor, partial curve, poor fit] | –
23 | CCOc1ccccc1NC(=O)C(OC(=O)c1ccccc1NS(=O)(=O)c1cccs1)c1ccccc1 (stereo not given) | inconclusive: 16.4 µM [inhibitor, partial curve, poor fit] | –
24 | C/C(=N\Nc1nc(C)cc(-c2ccccc2)n1)c1ccccc1 | inconclusive: 12.6 µM [inhibitor, partial curve, poor fit] | –

Row | SMILES | Potency | activity change, negative = inhibition
25 | CCOC(=O)c1c(C)c(C(=O)NCc2ccco2)c(C)n1Cc1ccccc1 | – | inactive: -0.81%
26 | c1ccc(-c2noc(-c3ccco3)n2)nc1 | inconclusive: 10 µM [inhibitor, single point] | –
27 | Cc1ccc(N(C(=O)c2csnn2)C(C(=O)NC2CCCCC2)c2ccccn2)cc1 (stereo not given) | inconclusive: 5.62 µM [inhibitor, single point] | –
28 | CCOc1cc(C2c3c(oc4cc(C)c(Cl)cc4c3=O)C(=O)N2Cc2ccco2)ccc1O (stereo not given) | inconclusive: 9.2 µM [inhibitor, partial curve, poor fit] | –
29 | COc1ccc(-c2nc3ccccc3n2Cc2ccc(C)cc2)cc1 | – | inactive: 9.43% [at 46.1 µM]
30 | COc1ccc(NC(=O)c2cc3nc(-c4ccccc4)cc(C)n3n2)cc1OC | inconclusive: 35.5 µM [inhibitor, partial curve, poor fit] | –
31 | O=C1NC(Cc2c[nH]c3ccccc23)C(=O)N1CCOc1ccccc1 (stereo not given) | inconclusive: 17.8 µM [inhibitor, single point] | –
32 | COc1ccc(-c2cc(-c3c(O)c(OC)c4occc4c3OC)[nH]n2)cc1OC | – | inactive: -18.5%
33 | CCn1c(C)c(CS(=O)(=O)c2ccccc2)[nH]c1=O | inconclusive: 12.6 µM [inhibitor, single point] | –
34 | CN(C)c1cccc(C(=O)NCc2ccc(Cl)cc2)c1 | – | inactive: 0% [at 46.1 µM]
35 | CCCCSc1nnc2c(n1)[nH]c1ccccc12 | inconclusive: 0.206 µM [activator, single point] | –
36 | COc1ccc(CCNC(=O)C2CCN(Cc3nc(-c4ccccc4C)oc3C)CC2)cc1OC | inconclusive: 18.3 µM [inhibitor, single point] | –
37 | COc1ccc(-c2cc(C3CCN(c4ncccc4[N+](=O)[O-])CC3)[nH]n2)cc1 | inconclusive: 11.2 µM [inhibitor, partial curve] | –
38 | CN(C)S(=O)(=O)c1cc(NC(=O)CN2CCc3ccccc32)ccc1Cl | – | inactive: 11.8% [at 46.1 µM]
39 | COc1ccc(-c2cc(C(F)(F)F)nc(SCCC(=O)Nc3ccc(O)cc3)n2)cc1 | – | inactive: -2.45% [at 46.1 µM]
40 | O=S(=O)(c1cccc(NC(=S)NCc2ccco2)c1)N1CCOCC1 | inconclusive: 35.5 µM [activator, single point] | –
41 | CC(C)[C@H](NS(=O)(=O)c1ccccc1)C(=O)Nc1ccccc1N1CCOCC1 | inconclusive: 2.51 µM [inhibitor, partial curve, poor fit] | –
42 | COc1ccc2c(c1)CC=C1C2CCC2(C)C(=O)C(=NO)CC12 (stereo not given) | inconclusive: 1.26 µM [inhibitor, single point] | –
43 | O=C(c1ccco1)N1CCN(CCOCCOc2cccc3ccccc23)CC1 | inconclusive: 11.6 µM [inhibitor, partial curve, poor fit] | –
44 | O=C(N/N=C/c1ccc(OCc2ccccc2)cc1)c1cccs1 | – | inactive: -15.3%
45 | CC[C@]12c3[nH]c4cc(-c5ccco5)ccc4c3CCN1C(=O)[C@@H](CC(=O)NC(C)(C)C)C[C@@H]2C(=O)N1CCN(C(=O)c2ccco2)CC1 | – | inactive: 6.24%
46 | Cc1ccc(NC(=O)CCC(=O)OCC(=O)c2ccc(Oc3ccc([N+](=O)[O-])cc3)cc2)cc1 | inconclusive: 12.6 µM [activator, partial curve, poor fit] | –
47 | O=C(NC(C(=O)c1ccccc1)n1cnccc1=O)c1ccccc1 (stereo not given) | inactive | –
48 | COc1ccc(-c2c/c(=N\c3nc(-c4ccccc4)c(C)s3)c3ccccc3o2)cc1O | inconclusive: 10 µM [inhibitor, partial curve, poor fit] | –

Complete entries, quoted from the list:
`CCOc1cc(C(=O)NCCCn2ccnc2)cc(OCC)c1OCC` reads Potency: inconclusive: 0.631 µM [inhibitor, single point]
`CCOc1ccc(NC(=O)C(c2ccccn2)N(C(=O)CCl)c2ccc(OC)cc2)cc1` (stereo not given) reads Potency: inconclusive: 35.5 µM [inhibitor, single point]
`CCC1(C)Cc2c(sc3nc(SC)nc(NCCN(C)C)c23)CO1` (stereo not given) reads Potency: inconclusive: 29.1 µM [inhibitor, partial curve, poor fit]

Next entries.

Row | SMILES | Potency | activity change, negative = inhibition
49 | CCCn1c(N)c(N(CCOC)C(=O)c2ccc(S(=O)(=O)N3CCOCC3)cc2)c(=O)[nH]c1=O | – | inactive: -0.171%
50 | Cc1ccccc1C(NC(N)=O)c1ccccc1 (stereo not given) | inconclusive: 0.231 µM [activator, single point] | –
51 | C=CCn1c(SCC(=O)NC2CCCC2)nc2scc(-c3ccco3)c2c1=O | – | inactive: -1.02% [at 46.1 µM]
52 | CC(C)CC1(C2CCCC2)NC(=O)NC1=O (stereo not given) | – | inactive: 15.6% [at 46.1 µM]
53 | CCN(CC)CCCN1C(=O)C(=O)/C(=C(/O)c2ccc(C)cc2)C1c1ccccn1 (stereo not given) | inactive | –
54 | Cc1ccc(S(=O)(=O)C2(C(=O)Nc3ccc(C(C)C)cc3)CC2)cc1 | – | inconclusive: 6.46% [activator] [at 46.1 µM]
55 | Cc1ccc(O)c(-c2cc(-c3ccccc3C)[nH]n2)c1 | inconclusive: 20 µM [inhibitor, partial curve, poor fit] | –
56 | N=c1n(Cc2ccccc2)c2ccccc2n1CC(O)c1ccco1 (stereo not given) | inconclusive: 20 µM [inhibitor, single point] | –
57 | COc1ccccc1CNC(=O)c1ccc(CSc2nc3ccncc3n2Cc2ccccc2C)cc1 | inconclusive: 15.8 µM [inhibitor, single point] | –
58 | Cn1ccsc1=NC(=O)c1ccc(S(=O)(=O)C(F)F)cc1 | – | inactive: 5.42% [at 46.1 µM]
59 | Cc1cc(C)nc(Nc2ccccc2Br)n1 | – | inactive: 22.9%
60 | CCNC(=O)COC(=O)/C=C/c1cccc(F)c1 | inconclusive: 5.62 µM [activator, single point] | –
61 | Cc1c(NS(=O)(=O)c2cccc(C(=O)N3CCC(C)CC3)c2)c(=O)n(-c2ccccc2)n1C | – | inactive: -9.78% [at 46.1 µM]
62 | O=C(O)c1csc(-c2cccs2)n1 | – | inactive: 11.2% [at 46.1 µM]
63 | Cc1ccccc1NC(=S)NCC1CCC(CNC(=S)Nc2ccccc2C)CC1 (stereo not given) | inconclusive: 1.78 µM [activator, partial curve, poor fit] | –
64 | COCCn1c(-c2ccc(OC)cc2)cnc1SCC(=O)Nc1cc(C)on1 | inconclusive: 20 µM [inhibitor, partial curve, poor fit] | –
65 | CC(=O)c1c(C)[nH]c(C(=O)CSc2nnc(-c3cccs3)n2Cc2ccccc2)c1C | inconclusive: 25.9 µM [inhibitor, single point] | –
66 | CCc1ccc2[nH]c(=O)c(CN(Cc3ccc(F)cc3)C(c3nnnn3CCN3CCOCC3)C(C)C)cc2c1 (stereo not given) | – | inactive: 9.69%
67 | Cc1cccc(NC(=O)CSCC(=O)Nc2ccccc2N2CCCCC2)c1 | active: 11.2 µM | –
68 | O=C(Cn1nc(-c2ccc(Cl)cc2)ccc1=O)NCCCN1CCN(Cc2ccccc2)CC1 | inconclusive: 35.5 µM [inhibitor, single point] | –
69 | Nn1c(SCc2ccccc2)nnc1-c1ccccn1 | – | inactive: 4.94%
70 | Cc1ccc(S(=O)(=O)c2nnn3c2nc(N2CCCCC2)c2ccccc23)cc1 | inconclusive: 0.251 µM [activator, full curve, poor fit] | –

Shown with tabs: part of the list above.
Row	SMILES	Potency	activity change, negative = inhibition
26	c1ccc(-c2noc(-c3ccco3)n2)nc1	inconclusive: 10 µM [inhibitor, single point]	–
27	Cc1ccc(N(C(=O)c2csnn2)C(C(=O)NC2CCCCC2)c2ccccn2)cc1 (stereo not given)	inconclusive: 5.62 µM [inhibitor, single point]	–
